Measurements published in PubChem BioAssay AID504842 (National Center for Advancing Translational Sciences (NCATS), 2011).
In all, about 330,000 compounds went through this assay and about 100 (0.03%) were called active. This list was built around the results that the source calls inconclusive (neither active nor inactive); the mix of calls is not that of the screen. Calls follow the shape of the dose curve; as a rule, active = well fitted inhibition curve with a large enough effect; inconclusive = small, poorly fitted or top-dose-only effect; inactive = flat fitted curve, though single readings scatter. Potencies beside an inconclusive call are fits to weak or partial responses and may not hold up.

Each compound was assayed on Chaperonin Mm-Cpn (Methanococcus maripaludis) (assay: Inhibitors of TCP-1 ring complex (TRiC) of Methanococcus maripaludis (MmCpn): qHTS). Conditions: purified Mm-Cpn ATPase, ADP Transcreener TR-FRET; series mostly up to 76.9 µM.
In short: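 ATPase turnover read by TR-FRET ADP competition (Eu cryptate antibody/ADP-d2, 665/590 nm): 10uM ATP final, 25nM Mm-CPN final, 30 min 37degC after 10-min compound preincubation, pH 7.4 Tris/KCl/MgCl2/DTT buffer.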
Also: nearly all actives have a fitted effect of over 80% in size.
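For Potency in this document: enzyme at 25 nM with ATP substrate at 10 µM during the reaction.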
Potency is read from the fitted curve at half-maximal effect.

SMILES | Potency
CC(=O)N/C(=C\c1ccc2c(c1)OCO2)C(=O)NC(C(=O)O)c1ccccc1 (centres undefined) | inactive
Cc1ccc(CNC(=O)CCn2nc(-c3ccc(Cl)cc3)ccc2=O)cc1 | inconclusive: 22.4 µM [inhibitor, single point]
C(=C\c1ccccc1)/CN1CCN(C(c2ccccc2)c2ccccc2)CC1 | inconclusive: 15.8 µM [inhibitor, single point]
COC(=O)c1ccc(-c2ccc(Cl)cc2)nc1C | inactive
CCCCCCNC(=O)N[C@@H](C(=O)NCCC[C@H]1CN2C(=NC[C@@H]2Cc2ccccc2)N1CCc1cccc(OC)c1)C(C)C | inconclusive: 100 µM [inhibitor, single point]
NS(=O)(=O)c1ccc(-c2c(-c3ccccc3)sc3ccccc23)cc1 | inconclusive: 79.4 µM [inhibitor, partial curve, poor fit]
COCCn1nnnc1C(c1cccc(C(F)(F)F)c1)N1CCOCC1 (centres undefined) | inconclusive: 56.2 µM [inhibitor, single point]
CCOC(=O)N1CCN(c2cc(NCCC(=O)O)c3c4c(onc24)-c2ccccc2C3=O)CC1 | inconclusive: 126 µM [inhibitor, partial curve, poor fit]
c1ccc(-c2nnc(SCCC3OCCCO3)o2)cc1 | inactive
COc1ccc(NC(=O)c2cc3n(n2)C(C(F)(F)F)CC(c2ccc4c(c2)OCO4)N3)cc1OC (centres undefined) | inconclusive: 22.4 µM [inhibitor, single point]
Cn1c(C(=O)N2CCN(Cc3ccc4c(c3)OCO4)CC2)cc2sccc21 | inactive
CCOC(=O)Cn1nc(C)c(NC(=O)c2ccc([N+](=O)[O-])c(C)c2)c1C | inconclusive: 12.6 µM [inhibitor, single point]
O=C1C2C3C=CC(CC3)C2C(=O)N1c1ccc(F)cc1 (centres undefined) | inactive
CCN1CCN(c2ccc(S(=O)(=O)N3CCCCC3)cc2NC(=O)c2ccc(OC(F)F)cc2)CC1 | inactive
C=CCN1C(c2ccccc2)=CS/C1=C(\C#N)c1nnc2n1CCCCC2 | inactive
c1ccc(CSc2ncnc3ccccc23)cc1 | inconclusive: 14.1 µM [inhibitor, single point]
COC(=O)c1c(-c2ccc(OC)cc2)sc2cc(OC)c(OC)cc12 | inconclusive: 56.2 µM [inhibitor, partial curve, poor fit]
O=C(CSc1nc2ccccc2c(=O)n1-c1ccccc1Cl)Nc1cccc(S(=O)(=O)N2CCOCC2)c1 | inconclusive: 200 µM [inhibitor, partial curve, poor fit]
COC(=O)c1ccc(/C=N/NS(=O)(=O)c2cc(C)ccc2C)cc1 | inactive
CCNC(=S)N/N=C(\C)c1ccc2ccccc2c1 | inactive
Cc1nnc(SCC(=O)c2c[nH]c3ccccc23)n1C1CC1 | inconclusive: 25.1 µM [inhibitor, single point]
O=C(COc1ccc(Cl)cc1)NCc1nnc(SCC(=O)c2ccccc2)o1 | inconclusive: 100 µM [inhibitor, partial curve, poor fit]
Nc1nnnn1/N=C/C=C/c1ccccc1 | inconclusive: 25.1 µM [inhibitor, single point]

SMILES | Potency
O=C(COC(=O)c1cc(=O)[nH]c2ccccc12)NCc1ccc(Cl)cc1 | inconclusive: 10 µM [inhibitor, single point]
CNC(=S)N1N=C(c2ccc(Br)cc2)CC1c1ccc(Br)cc1 (centres undefined) | inconclusive: 56.2 µM [inhibitor, partial curve]
COC(=O)c1c(-c2ccc(OC)cc2)sc2ccccc12 | active: 35.5 µM
Cc1ccc(S(=O)(=O)N2CCN(C(=O)NCc3ccc(C(=O)O)cc3)CC2)cc1 | inconclusive: 89.1 µM [inhibitor, single point]
COc1ccc(S(=O)(=O)N2CCN(c3nc(-c4cccnc4)nc4ccccc34)CC2)cc1 | inconclusive: 224 µM [inhibitor, partial curve, poor fit]
Cc1cc(F)ccc1NC(=O)c1ccc(NS(=O)(=O)c2cc(C(C)(C)C)ccc2C)cc1 | inactive
COC(=O)c1c(-c2ccsc2)sc2ccc(-c3cc(OC)c(OC)c(OC)c3)cc12 | inconclusive: 141 µM [inhibitor, partial curve, poor fit]
CCOC(=O)c1ccc(N2C(=O)Cc3ccccc3C2=O)cc1 | inconclusive: 11.2 µM [inhibitor, single point]
COc1ccccc1C(=O)N1CC2(C)CC1CC(C)(C)C2 (centres undefined) | inconclusive: 20 µM [inhibitor, single point]
CC(C)CC(NC(=O)OC(C)(C)C)C(=O)NCc1ccccc1 (centres undefined) | inactive
CN1CCN(C(=O)c2cnn3c2NC(c2ccccc2)CC3C(F)(F)F)CC1 (centres undefined) | inconclusive: 100 µM [inhibitor, single point]
S=c1[nH]c(-c2ccccc2)cs1 | inactive
COc1ccc(/C(O)=C2\C(=O)C(=O)N(c3cc(C)on3)C2c2ccccc2OC)cc1 (centres undefined) | inconclusive: 126 µM [inhibitor, partial curve, poor fit]
Cc1ccc(Cn2c(N3CCNCC3)nc3c2c(=O)[nH]c(=O)n3C)cc1 | inconclusive: 20 µM [inhibitor, single point]
O=C(Nc1ccc(C(=O)N2CCCC2)cc1)c1ccccc1[N+](=O)[O-] | inconclusive: 224 µM [inhibitor, partial curve, poor fit]
Cc1ccc(NC(=O)C(=O)NCCCN2CCCC2=O)cc1 | inconclusive: 22.4 µM [inhibitor, single point]
Nc1cccc(N2C(=O)c3cccc4c(N)ccc(c34)C2=O)c1 | inactive
COc1cc(COCC(O)CN2CCN(Cc3ccc4c(c3)OCO4)CC2)cc(OC)c1OC (centres undefined) | inconclusive: 14.1 µM [inhibitor, single point]
O=C(N/N=C/c1ccc(N2CCCCC2)o1)C(O)(c1ccccc1)c1ccccc1 | inactive
CCCN1CCN(C(=O)Cn2nc(CC)n3c(cc4sccc43)c2=O)CC1 | inconclusive: 15.8 µM [inhibitor, single point]
CCOC(=O)N/N=C/c1ccccc1OCc1ccc(Cl)cc1 | inactive
COc1ccc(NC(=O)CCOc2ccc(C)cc2)c(OC)c1 | inconclusive: 56.2 µM [inhibitor, single point]
O=C(NCc1ccccn1)c1ccc(Cn2c(=S)[nH]c3ccccc3c2=O)cc1 | inactive

Reformatted as comma-separated lines: three of the compounds above.
SMILES,Potency
CNC(=S)N1N=C(c2ccc(Br)cc2)CC1c1ccc(Br)cc1 (centres undefined),"inconclusive: 56.2 µM [inhibitor, partial curve]"
COC(=O)c1c(-c2ccc(OC)cc2)sc2ccccc12,active: 35.5 µM
CN1CCN(C(=O)c2cnn3c2NC(c2ccccc2)CC3C(F)(F)F)CC1 (centres undefined),"inconclusive: 100 µM [inhibitor, single point]"

Next part:

SMILES | Potency
NC(=O)c1ccsc1NC(=O)c1ccc(S(=O)(=O)N2CCCc3ccccc32)cc1 | inconclusive: 44.7 µM [inhibitor, single point]
N#Cc1ccc2ccn(CC(=O)N3CCCc4ccccc43)c2c1 | inconclusive: 89.1 µM [inhibitor, single point]
CCn1c(=O)c2sccc2n2c(CCCC(=O)NCc3cccnc3)nnc12 | inconclusive: 15.8 µM [inhibitor, single point]
CC(=O)Nc1ccc(/C=N/Nc2nncc3ccccc23)cc1 | inconclusive: 79.4 µM [inhibitor, single point]
O=C(NC(=S)Nc1ccccc1C(=O)O)c1cncc(Br)c1 | inactive
O=c1[nH]c2ccc(Cl)cc2c(=O)n1Cc1ccco1 | inactive
CCn1c(C)nc2cc(C(=O)N/N=C/c3ccc(N4CCOCC4)cc3)ccc21 | inconclusive: 100 µM [inhibitor, single point]
Cc1cccc(-c2ccc3ncnc(NCc4cccc(F)c4)c3c2)c1 | inconclusive: 112 µM [inhibitor, single point]
O=C(COc1ccc(Cl)cc1)Nc1nc(-c2ccc(S(=O)(=O)N3CCOCC3)cc2)cs1 | active: 44.7 µM
Cc1ccc(C(=O)NNC(=O)C2CCN(C(=O)OC(C)(C)C)CC2)cc1 | inconclusive: 79.4 µM [inhibitor, single point]
CC1CCCCN1S(=O)(=O)c1ccc(C(=O)Nc2nnc(-c3ccco3)o2)cc1 (centres undefined) | inconclusive: 25.1 µM [inhibitor, single point]
COC(=O)c1cccc(NC(=S)N2CCN(C)CC2)c1 | inconclusive: 63.1 µM [inhibitor, single point]
Cc1c(Cc2ccccc2)c(=O)oc2c(C)c(OCC(=O)N3CCC(C(=O)O)CC3)ccc12 | inconclusive: 56.2 µM [inhibitor, single point]
CCn1nnc2cc(C(=O)Nc3ccc(C(=O)OC(C)C)cc3)ccc21 | inconclusive: 100 µM [inhibitor, single point]
CCOc1ccc(/C(O)=C2\C(=O)C(=O)N(c3cc(C)on3)C2c2ccccc2OC)cc1 (centres undefined) | inconclusive: 178 µM [inhibitor, partial curve]
O=C(NN1C(=O)NC2(CCCCC2)C1=O)c1ccc(-c2ccc(Cl)cc2)o1 | inactive
COCCN(C(=O)c1csnn1)C(C(=O)NC1CCCCC1)c1ccc(C)cc1 (centres undefined) | inconclusive: 89.1 µM [inhibitor, single point]
O=C1N/C(=N/NC(=O)c2cccc3ccccc23)S/C1=C\c1ccccc1OCc1ccccc1 | inactive
O=C(c1cccc(F)c1)N1CCN(C(=O)C2CC2)CC1 | inconclusive: 20 µM [inhibitor, single point]
COc1ccc(-c2ccc([C@H]3[C@H]4C=CC[C@@H](C)[C@@H]4C(=O)N3Cc3ccccc3)c(F)c2)cc1C | inactive
COc1cc(NC(=O)CNC(c2ccccc2)c2ccccc2)cc(OC)c1OC | inactive
CC(/C=N/n1c(-c2ccc(C)cc2)n[nH]c1=S)=C\c1ccco1 | inactive
COc1ccc2c(c1)OCC1=C2CCC2(C)C(=O)CC=C12 (centres undefined) | inactive
